Source: patent US20140213506A1, “THYMOSIN ALPHA PEPTIDE FOR PREVENTING, REDUCING THE SEVERITY OF, AND TREATING INFECTION” (priority 2011, published 2014)
Entries after “also recorded” stand apart in the source; their conditions may differ. At least one peptide structure holds a part that was inferred or is arguable (an end, a ring closure or a residue). No end group written: not given here.

How the values were obtained:
[1] = tested on: 3 vaccine strains present in the Fluvirin® 2008-2009 vaccine (Florida [B], Brisbane 10 and Brisbane); assay type: in vivo, CD-1 mice
H1N1 A/Brisbane 59 = experiment: HAI antibody titer in ferrets vaccinated with non-adjuvanted (Agrippal) or adjuvanted (Fluad) influenza vaccine; assay type: in vivo; conditions: for animals with desired anti-influenza antibodies (protective titers): 0.57 mg/kg TA1 s.c. seven days prior to and on the day of vaccination, n = 4
[2] = tested on: influenza and hepatitis B vaccines; conditions: elderly and hemodialysis patients; 8 injections of TA1 subsequent to vaccination; cited from earlier work
H1N1 influenza = experiment: HI test after H1N1 vaccination (Focetria) in hemodialysis patients; conditions: for seroconversion in patients negative at baseline: FIG. 8
[3] = human equivalent of 6.4 mg, day −7 and day of vaccination, without adjuvant

Ac-SDAAVDTSSEITTKDLKEKKEVVEEAEN [TA1, (N-acetyl)-Ser-Asp-Ala-Ala-Val-Asp-Thr-Ser-Ser-Glu-11e-Thr-Thr-Lys-Asp-Leu-Lys-Glu-Lys-Lys-Glu-Val-Val-Glu-Glu-Ala-Glu-Asn-OH]
consistency of HAI titer increase compared to other doses ([1]; 1.2 mg/kg dose of TA1 i.p. (highest dose)): increased the titers more consistently when compared to the other doses | HAI titer versus Fluvirin alone ([1]; TA1 0.3, 0.6 or 1.2 mg/kg/dose i.p., different schedules, Fluvirin 2008-2009 9 μg/dose i.m. twice, blood ten days after final vaccine): generally greater; also recorded: enhances the formation of anti-influenza antibodies | animals achieving desired anti-influenza antibodies ([1]; TA1 seven days prior to and on day of Fluvirin vaccination on SD 8): all animals achieved desired anti-influenza antibodies in all tester strains | animals with desired anti-influenza antibodies (protective titers) (H1N1 A/Brisbane 59): ¾ | animals with desired anti-influenza antibodies (protective titers) (H1N1 A/Brisbane 59; listed as Thymalfasin): 3 of 4 | persistence of titer (H1N1 A/Brisbane 59; 0.57 mg/kg TA1 day -7 and day 0, evaluated 42 days after vaccination): persisted | HAI titer after vaccine booster (H1N1 A/Brisbane 59; TA1 on day 0 and +21, versus boosted without TA1): higher HAI titer after vaccine booster than those boosted without TA1 | antibody titer judged against protective titer of 1:40 (H1N1 A/Brisbane 59; [3]): protective | increase in antibody titer over vaccine alone (H1N1 A/Brisbane 59; [3]): 4 fold | HAI titer (Day 21) versus vaccine alone (H1N1 A/Brisbane 59; two injections of TA1 s.c. plus non-adjuvanted vaccine): generally greater | response to influenza and hepatitis B vaccines [2]: increases the response | improvement in titers at 42 days (H1N1 influenza; 42 days after vaccination): maintained | seroconversion in patients negative at baseline (H1N1 influenza; by day 42, all arms): all patients achieved seroconversion | seroconversion in patients negative at baseline (H1N1 influenza; day 21): more likely to have achieved seroconversion | number of persons with seroprotection and number who seroconvert (H1N1 influenza; day 21, versus vaccine alone, FIG. 4): greater | mean titer at day 21 (H1N1 influenza; two doses of thymalfasin (3.2 or 6.4 mg) with vaccine, FIG. 5): increases the mean titer in a dose-dependent fashion | vaccine efficacy (H1N1 influenza; two injections of TA1 in addition to H1N1 adjuvanted vaccine): led to an increase in vaccine efficacy
